# Earlier results, collected in patent publication US20150147356A1, “ANTIPYRETICS TO ENHANCE TOLERABILITY OF VESICLE-BASED VACCINES” (priority 2011, published 2015).
# At least one compound was matched to its structure with a doubt left.
# Tests used:
# [1] = vaccinees received paracetamol, reference 2
# [2] = tested on: pneumococcal; conditions: prophylactic use of paracetamol, reference 4
compound,measurement,setting,value
"CC(=O)Nc1ccc(O)cc1 [paracetamol, paracetamol (acetaminophen)]",antibody responses to several vaccine antigens,[1],reduced
same,post-vaccination anti-pneumococcal antibody concentrations,[2],reduced
